Source: patent US20210379147A1, “METHOD AND SYSTEM FOR TREATING CANCER UTILIZING TINAGL1” (The Trustees of Princeton University, priority 2018, published 2021)
These are yes or no findings as the source states them, for the method shown. For some assays here: In cells and extracts the contact can be indirect. Some entries that bind do so weakly or less than the wild type. Tags and fused reporters may be left off the sequences shown.

The chains behind the UniProt entries cited, without tags or fusion partners. Residues count along the entry.
UniProt P06756, residues 31-1048: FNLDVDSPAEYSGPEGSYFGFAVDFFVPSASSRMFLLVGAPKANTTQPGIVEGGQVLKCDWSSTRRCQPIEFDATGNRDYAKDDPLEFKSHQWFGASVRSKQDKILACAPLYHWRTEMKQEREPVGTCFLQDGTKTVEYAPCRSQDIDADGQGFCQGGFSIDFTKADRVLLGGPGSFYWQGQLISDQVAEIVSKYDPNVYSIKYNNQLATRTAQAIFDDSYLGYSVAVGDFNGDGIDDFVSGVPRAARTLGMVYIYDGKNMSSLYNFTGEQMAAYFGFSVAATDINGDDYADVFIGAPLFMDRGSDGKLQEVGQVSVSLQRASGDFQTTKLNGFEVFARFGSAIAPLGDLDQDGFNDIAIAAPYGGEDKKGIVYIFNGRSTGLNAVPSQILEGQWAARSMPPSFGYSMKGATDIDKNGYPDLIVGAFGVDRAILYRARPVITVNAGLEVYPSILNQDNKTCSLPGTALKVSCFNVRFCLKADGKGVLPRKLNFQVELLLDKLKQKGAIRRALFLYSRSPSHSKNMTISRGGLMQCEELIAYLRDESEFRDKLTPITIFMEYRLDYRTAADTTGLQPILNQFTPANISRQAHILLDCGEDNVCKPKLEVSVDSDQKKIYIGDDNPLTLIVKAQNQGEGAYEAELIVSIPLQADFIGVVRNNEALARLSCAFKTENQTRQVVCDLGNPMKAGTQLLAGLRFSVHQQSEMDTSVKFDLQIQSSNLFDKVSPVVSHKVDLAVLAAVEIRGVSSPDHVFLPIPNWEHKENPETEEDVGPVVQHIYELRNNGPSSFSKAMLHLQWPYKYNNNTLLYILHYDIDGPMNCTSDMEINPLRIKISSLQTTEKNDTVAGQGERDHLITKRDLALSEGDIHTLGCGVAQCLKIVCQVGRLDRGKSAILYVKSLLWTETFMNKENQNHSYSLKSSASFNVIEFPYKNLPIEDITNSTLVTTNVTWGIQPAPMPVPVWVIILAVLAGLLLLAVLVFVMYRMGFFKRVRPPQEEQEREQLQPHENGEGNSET

B1: C-terminal HA tagged Tinagl1 (Tinagl1-HA) (protein, not shown: small tags and cut ends)
chain: AQQGRGRRELAPGLHLRGIRDAGGRYCQEQDLCCRGRADDCALPYLGAICYCDLFCNRTVSDCCPDFWDFCLGVPPPFPPIQGCMHGGRIYPVLGTYWDNCNRCTCQENRQWQCDQEPCLVDPDMIKAINQGNYGWQAGNHSAFWGMTLDEGIRYRLGTIRPSSSVMNMHEIYTVLNPGEVLPTAFEASEKWPNLIHEPLDQGNCAGSWAFSTAAVASDRVSIHSLGHMTPVLSPQNLLSCDTHQQQGCRGGRLDGAWWFLRRRGVVSDHCYPFSGRERDEAGPAPPCMMHSRAMGRGKRQATAHCPNSYVNNNDIYQVTPVYRLGSNDKEIMKELMENGPVQALMEVHEDFFLYKGGIYSHTPVSLGRPERYRRHGTHSVKITGWGEETLPDGRTLKYWTAANSWGPAWGERGHFRIVRGVNECDIESFVLGVWGRVGMEDMGHH
B2: full length recombinant human Tinagl1 with 6xHis tag at the C-terminus (r-Tinagl1) (protein)
chain: AQQGRGRRELAPGLHLRGIRDAGGRYCQEQDLCCRGRADDCALPYLGAICYCDLFCNRTVSDCCPDFWDFCLGVPPPFPPIQGCMHGGRIYPVLGTYWDNCNRCTCQENRQWQCDQEPCLVDPDMIKAINQGNYGWQAGNHSAFWGMTLDEGIRYRLGTIRPSSSVMNMHEIYTVLNPGEVLPTAFEASEKWPNLIHEPLDQGNCAGSWAFSTAAVASDRVSIHSLGHMTPVLSPQNLLSCDTHQQQGCRGGRLDGAWWFLRRRGVVSDHCYPFSGRERDEAGPAPPCMMHSRAMGRGKRQATAHCPNSYVNNNDIYQVTPVYRLGSNDKEIMKELMENGPVQALMEVHEDFFLYKGGIYSHTPVSLGRPERYRRHGTHSVKITGWGEETLPDGRTLKYWTAANSWGPAWGERGHFRIVRGVNECDIESFVLGVWGRVGMEDMGHHVDHHHHHH

Experiments:
[1] = target: integrin αv subunit (human) (UniProt P06756); assay: anti-HA co-IP from LM2 cells expressing Tinagl1-HA, WB
[2] = target: recombinant His-tagged EGFR protein (EGFR extracellular domain recombinant protein, Novoprotein CI61) (UniProt P00533); assay: anti-His IP of 5 µg each of purified recombinant proteins in PBS, WB

Binder	binding [1]	binding [2]
B1	binds	
B2		binds
